Test results: PubChem BioAssay AID504467 (National Center for Advancing Translational Sciences (NCATS), 2011)
Among all 330,000 compounds or so, about 7,700 (2.3%) were called active. The shares of active, inactive and inconclusive entries below differ from those in the screen. Calls follow the shape of the dose curve; as a rule, active = well fitted inhibition curve with a large enough effect; inconclusive = small, poorly fitted or top-dose-only effect, or effect the other way; inactive = flat fitted curve, though single readings scatter. Potencies beside an inconclusive call are fits to weak or partial responses and may not hold up.
% is scaled to controls: 0 for no effect and ±100 for the full control effect; potency is read from the fitted curve at half-maximal effect.

Experiment: qHTS screen for small molecules that inhibit ELG1-dependent DNA repair in human embryonic kidney (HEK293T) cells expressing luciferase-tagged ELG1; also: nearly all actives have a fitted effect of over 55% in size
Details: HEK293T ELG1-luciferase reporter, luminescence, 16 h, DNA damage induced by 5-fluorouridine; activity change, negative = inhibition: at 46.1 µM (top of the series)
Outline: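 DMSO vehicle served as the neutral condition. Each well held 2,000 cells given 5-fluorouridine plus compound; after 16 hr at 37 °C/5% CO2, ONE-Glo was added and luciferase measured 30 min later.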
For `CCN(CC1COc2ccccc2O1)C(=S)Nc1ccc(F)cc1` (centres undefined), the Potency was inconclusive: 18.4 µM [inhibitor, partial curve, poor fit]. With `COc1ccccc1NC(=O)c1oc2ccc(C)cc2c1C` the Potency was inconclusive: 20.6 µM [activator, single point]. In the case of `Cc1cccc(N2CN(Cc3cccnc3)CNC2=S)c1`, the “activity change, negative = inhibition” value was inactive: 9.17%. In the case of `CC(=O)N1c2ccc(S(=O)(=O)NCCC(=O)NC3CCC(C)CC3)cc2CC1C` (centres undefined), the “activity change, negative = inhibition” value was inactive: 4.37%. For `Cc1ccc(NC(=O)CN(C)Cc2cccs2)cc1Cl`, the “activity change, negative = inhibition” value was inactive: -0.59%. With `CC1CCN(S(=O)(=O)c2ccc3c(c2)c(=O)c(C(=O)NCc2ccccc2Cl)cn3C)CC1` the “activity change, negative = inhibition” value was inactive: 1.8%. For `CC(=C\C(=O)O)/C(=C\c1cccc2ccccc12)C(=O)O`, the Potency was inconclusive: 23.1 µM [activator, partial curve, poor fit]. For `COc1ccc(NC(=O)c2sc3nc(N4CCCC4)c4c(c3c2N)CC(C)(C)OC4)cc1`, the Potency was active: 5.8 µM. With `CNC(=S)N/N=C1\C(=O)c2cccc3cccc1c23` the Potency was inconclusive: 9.2 µM [activator, partial curve, poor fit]. For `Cc1ccc(-c2n[nH]c(=S)n2/N=C/c2ccc(C(=O)O)cc2)cc1`, the “activity change, negative = inhibition” value was inactive: -4.03%. In the case of `Cc1cccc(NC(=O)CC2C(=O)NC3CCCCC3N2C(=O)c2ccccc2Cl)c1` (centres undefined), the “activity change, negative = inhibition” value was inactive: 2.72%. With `COc1ccc(C2=Nn3c(nnc3-c3ccco3)SC2)cc1OC` the Potency was inconclusive: 5.8 µM [activator, full curve]. For `COc1ccc(NC(=O)N(C)C[C@H]2Oc3c(NC(=O)Nc4ccc5c(c4)OCO5)cccc3C(=O)N([C@H](C)CO)C[C@@H]2C)cc1`, the Potency was inconclusive: 4.11 µM [inhibitor, full curve]. With `COc1ccc(NC(=O)C2CCCN(CCCc3ccccc3)C2)cc1OCC(C)C` (centres undefined) the “activity change, negative = inhibition” value was inactive: -21.6%. In the case of `CC(C(=O)Nc1ccc(Cl)cc1Cl)N1C(=O)NC2(CCCC2)C1=O` (centres undefined), the “activity change, negative = inhibition” value was inactive: 4.31%. In the case of `CCOCCOC(=O)C1=C(C)N(C)C(=O)NC1c1cc(Cl)c(O)c(OCC)c1` (centres undefined), the Potency was inconclusive: 20.6 µM [inhibitor, single point]. For `Cc1ccc2oc(-c3ccco3)nc2c1`, the Potency was inconclusive: 10 µM [activator, partial curve]. In the case of `Cc1cccc(S(=O)(=O)Nc2cccc(-c3cn4ccsc4n3)c2)c1`, the Potency was inconclusive: 16.4 µM [inhibitor, partial curve, poor fit]. With `CCc1ccc(N2CC(C(=O)Nc3ccccc3F)CC2=O)cc1` (centres undefined) the “activity change, negative = inhibition” value was inactive: -5.01%. In the case of `O=C(COC(=O)c1ccc(O)cc1)Nc1nccs1`, the Potency was inconclusive: 23.1 µM [activator, partial curve]. In the case of `Cc1ccccc1NS(=O)(=O)c1ccc(C(=O)NCC(c2ccco2)N2CCCCC2)cc1` (centres undefined), the Potency was inconclusive: 23.1 µM [inhibitor, single point]. In the case of `C/C(=N\NC(=O)C(N)=O)c1ccc(NC(=O)c2cccs2)cc1`, the Potency was inconclusive: 20.6 µM [activator, partial curve]. In the case of `COc1ccc(NC(=O)CSc2nnc(-c3ccc(F)cc3)o2)cn1`, the Potency was inconclusive: 16.4 µM [activator, partial curve, poor fit]. For `COc1ccc(OC)c(C(=O)Cn2c3[n+](c4ccc(C(F)(F)F)cc42)CCCCC3)c1`, the Potency was inconclusive: 5.17 µM [inhibitor, single point]. In the case of `COc1ccccc1CNC(=O)COC(=O)c1cc2ccccc2o1`, the Potency was inconclusive: 16.4 µM [activator, partial curve, poor fit]. For `O=C(Nc1ccc2c(c1)CCC2)c1ncoc1-c1ccccc1F`, the Potency was inconclusive: 23.1 µM [activator, single point]. For `COc1ccc(NC(=O)NNC(=O)COc2ccc3cc(Br)ccc3c2)cc1`, the Potency was inconclusive: 23.1 µM [activator, partial curve]. For `Cc1cc(C(=O)COc2cc(F)ccc2[N+](=O)[O-])c(C)n1CC1CCCO1` (centres undefined), the Potency was inconclusive: 23.1 µM [activator, single point]. In the case of `O=[N+]([O-])c1ccc(O)c(N=Cc2sc3ccccc3c2O)c1`, the “activity change, negative = inhibition” value was inactive: -0.0724%. In the case of `CCOCCCNC(=O)/C(C#N)=C/c1ccc([N+](=O)[O-])o1`, the Potency was inconclusive: 23.1 µM [activator, partial curve]. In the case of `CCCC(=O)N(CC(=O)Nc1sc(C)c(C)c1C(N)=O)Cc1ccccc1`, the Potency was inconclusive: 20.6 µM [inhibitor, single point]. In the case of `CC(=O)c1ccc(NC(=O)c2ccc(NC(=O)c3ccco3)cc2)cc1`, the Potency was inconclusive: 18.3 µM [inhibitor, partial curve, poor fit]. With `CCC1(c2ccccc2)NC(=S)N(c2ccc(C)cc2)N1` (centres undefined) the Potency was inconclusive: 6.51 µM [activator, single point]. With `CC(=O)c1ccc(N2CCN(C(=O)CNS(=O)(=O)c3ccc4c(c3)OCCCO4)CC2)c(F)c1` the “activity change, negative = inhibition” value was inactive: -21.1%. With `Nc1nc(SCC(=O)c2ccc(Oc3ccccc3)cc2)n[nH]1` the Potency was inconclusive: 25.9 µM [activator, single point]. In the case of `Cc1ccc(S(=O)(=O)N2[C@@H](c3cccc(C)c3)C(C(=O)O)=C[C@H]2CC2CCCC2)cc1`, the “activity change, negative = inhibition” value was inactive: 5.19%. In the case of `CN(Cc1ccccc1)C(=O)C1CCN(S(=O)(=O)c2cc([N+](=O)[O-])ccc2Cl)CC1`, the “activity change, negative = inhibition” value was inactive: 4.75%. For `COc1ccccc1N/C=C/c1onc(C)c1[N+](=O)[O-]`, the Potency was inconclusive: 0.461 µM [activator, full curve]. With `CN(C(=O)CSc1nnc(Nc2ccccc2)s1)c1c(N)n(Cc2ccccc2)c(=O)[nH]c1=O` the “activity change, negative = inhibition” value was inactive: 3.74%. For `CC(=O)Oc1ccc(N(C(C)=O)S(=O)(=O)c2ccc(C)cc2C)c2ccccc12`, the Potency was inconclusive: 20.6 µM [inhibitor, single point]. In the case of `Cc1ccc(Cn2nc(C)c(NC(=O)c3cc(-c4ccc5c(c4)OCO5)on3)c2C)cc1`, the “activity change, negative = inhibition” value was inactive: -23.1%. For `CCCN(CC(=O)Nc1ccccc1C)C(=O)COc1c(Cl)cccc1Cl`, the “activity change, negative = inhibition” value was inactive: 19.4%. For `O=C(CN(c1cccc(C(F)(F)F)c1)S(=O)(=O)c1ccc(Cl)c([N+](=O)[O-])c1)NCc1ccccc1`, the Potency was inconclusive: 29.1 µM [inhibitor, single point]. In the case of `COc1ccc(OC)c(NC(=O)CSc2nncc(=O)n2N)c1`, the “activity change, negative = inhibition” value was inactive: -4.65%.
